Numbering of substitutions follows the chain as printed. Results are given in words; binding and its absence hold for the method and conditions named. In cells and extracts the contact can be indirect. Some binding calls cover weakened binding; strength is not graded here. For some assays here: Tags and fused reporters may be left off the sequences shown.
Legend:
Assay in all cases: pull-down; small-scale: His-tagged Ero1 variant co-expressed with PDI in E. coli; cleared lysate on HisPur cobalt agarose, wash 50 mM sodium phosphate pH 7.3, 300 mM NaCl, 15 mM imidazole; reducing SDS–PAGE of eluates
[1] = biological target: T1, human Ero1α C94A/C99A, N-terminal His tag (human) (UniProt Q96HE7)
T1 sequence: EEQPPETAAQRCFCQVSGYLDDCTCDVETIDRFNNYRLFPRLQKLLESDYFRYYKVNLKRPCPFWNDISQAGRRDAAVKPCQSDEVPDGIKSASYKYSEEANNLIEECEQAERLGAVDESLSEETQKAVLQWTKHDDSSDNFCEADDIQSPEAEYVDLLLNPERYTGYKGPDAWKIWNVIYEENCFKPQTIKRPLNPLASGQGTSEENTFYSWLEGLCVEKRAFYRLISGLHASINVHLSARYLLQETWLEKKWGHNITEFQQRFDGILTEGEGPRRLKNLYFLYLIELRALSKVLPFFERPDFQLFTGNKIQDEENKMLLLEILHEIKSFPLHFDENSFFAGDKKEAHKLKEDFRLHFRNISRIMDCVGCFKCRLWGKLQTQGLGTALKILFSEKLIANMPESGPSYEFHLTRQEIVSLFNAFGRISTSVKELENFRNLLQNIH

By UniProt entry, the sequences of proteins in these tests, tags left out. Residues count along the entry.
UniProt P07237, residues 18-508: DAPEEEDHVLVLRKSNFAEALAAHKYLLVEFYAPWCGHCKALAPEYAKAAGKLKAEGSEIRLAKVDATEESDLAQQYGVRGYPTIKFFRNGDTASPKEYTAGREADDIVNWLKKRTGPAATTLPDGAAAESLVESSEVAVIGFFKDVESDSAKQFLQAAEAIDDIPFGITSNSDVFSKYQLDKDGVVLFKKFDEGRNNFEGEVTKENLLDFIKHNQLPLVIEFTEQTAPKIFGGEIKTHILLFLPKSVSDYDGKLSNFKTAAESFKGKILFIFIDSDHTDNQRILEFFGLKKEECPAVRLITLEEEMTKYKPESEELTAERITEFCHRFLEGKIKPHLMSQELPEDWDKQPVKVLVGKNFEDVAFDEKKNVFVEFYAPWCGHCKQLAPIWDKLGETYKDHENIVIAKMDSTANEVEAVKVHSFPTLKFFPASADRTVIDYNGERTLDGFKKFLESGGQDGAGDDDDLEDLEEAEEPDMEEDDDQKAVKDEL

[2] = biological target: T2, human Ero1α C94A/C99A/C104A/C131A, N-terminal His tag (human) (UniProt Q96HE7)
T2 sequence: T1 sequence with C81A, C108A

[3] = biological target: human Ero1α C104A/C131A, N-terminal His tag (human) (UniProt Q96HE7)
[4] = biological target: T3, human Ero1β with all four outer active site and regulatory cysteines mutated (C90, C95, C100, C130 to alanine), N-terminal His tag (human) (UniProt Q86YB8)
T3 sequence: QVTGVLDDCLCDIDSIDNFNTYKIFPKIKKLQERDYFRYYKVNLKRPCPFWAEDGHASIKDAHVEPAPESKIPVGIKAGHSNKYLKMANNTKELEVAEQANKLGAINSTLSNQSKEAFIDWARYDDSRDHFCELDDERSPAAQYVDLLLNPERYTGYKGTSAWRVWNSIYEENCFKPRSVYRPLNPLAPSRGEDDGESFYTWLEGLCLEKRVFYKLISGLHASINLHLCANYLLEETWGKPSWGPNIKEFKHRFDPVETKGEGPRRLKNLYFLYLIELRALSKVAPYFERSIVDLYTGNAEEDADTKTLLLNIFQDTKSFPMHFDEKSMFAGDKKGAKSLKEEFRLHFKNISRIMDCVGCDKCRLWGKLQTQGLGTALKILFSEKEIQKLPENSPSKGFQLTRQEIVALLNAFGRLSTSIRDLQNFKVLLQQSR

[5] = biological target: T4, human Ero1β C95/100A, N-terminal His tag (human) (UniProt Q86YB8)
T4 sequence: T3 sequence with A57C, A97C

[6] = biological target: human Ero1β C100/130A, N-terminal His tag (human) (UniProt Q86YB8)
[7] = biological target: T5, human Ero1α C99A/C104A, N-terminal His tag (human) (UniProt Q96HE7)
T5 sequence: T1 sequence with A71C, C81A

[8] = biological target: T6, human Ero1β C90/95A, N-terminal His tag (human) (UniProt Q86YB8)
T6 sequence: T3 sequence with A67C, A97C

Measured: binding

human protein disulfide isomerase (PDI), wild type, co-expressed CyDisCo component (from UniProt P07237 18-508) (enzyme)
binds: all assays above

From paper PMC6238587
